Primary screen of a compound library

The values are deposited in ChEMBL (CHEMBL3988442, “University of Dundee, Small-Polar-MMV Screening Library” (2021)).

A: 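Whole-parasite assay of Trypanosoma brucei over 72 hours; the read-out is not stated. Compounds at 30 µM. Direction is inferred from retests: higher values go with stronger inhibition. Values scatter widely below zero; nearly all retest evidence comes from the higher of the two concentrations used. Of about 64,000 compounds tested this way, about 940 (1.5%) reached 50% or more in at least one test.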
B: 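Assay of Toxoplasma gondii numbers, read through their beta-galactosidase reporter with a colour substrate. Tested at 10 µM. Higher reads as fewer parasites (inferred from which compounds were picked for retests). About 67,000 compounds were tested under these conditions; 0.38% (about 260) showed 50% or more at least once.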

Each number is a percent effect as filed. The record does not define 0% and 100%; most values in the screen are far below 50% and negative numbers occur (in some assays of this library far below -100). Compounds were drawn at random from those tested, without regard to their results. A dash means the value is not listed here; it may have been measured.

| structure | A | B |
|---|---|---|
| `Cc1cccc(C)c1OC1CN(C(=O)C2CCN(C(=O)N(C)C)CC2)C1` | -68.14% | 4.867% |
| `O=C(O)C(F)(F)F.[H][C@]12CC[C@@]3(N=C(C)N(CCOC)C3=O)[C@@]1([H])CN(Cc1ccccc1F)C2` | -70.3% | -22.38% |
| `CS(=O)(=O)N1CCC(n2nnn(-c3ccccc3)c2=O)CC1` | -1.313% | 9.008% |
| `CCN(C(=O)CNC1CCc2ncnn2C1)C1=CCCCC1` (stereo unspecified) | -39.33% | -1.469% |
| `CCCc1nnc(SCc2cc(=O)n3c4c(sc3n2)CCCC4)[nH]1` | 5.035% | 8.625% |
| `Cc1ccc2c(n1)N(C)CCN(Cc1cnn(C)c1)C2` | -13.22% | 5.075% |
| `Cc1cccc(C(=O)N(CCCO)S(=O)(=O)c2cccs2)c1` | -37.48% | 3.526% |
| `Cn1ccc2c(C(=O)N3CCC4(CCOC4)C3)cccc21` (stereo unspecified) | 3.345% | 0.2582% |
| `CCc1nccn1C1CCCN(C(=O)c2csc(C3CC3)n2)C1` (stereo unspecified) | - | 8.342% |
| `CCc1nc(CN(C)CC2CCN(CC(C)O)CC2)no1` (stereo unspecified) | 4.084% | 10.5% |
| `COc1cccc(Cn2ncnc2COC(C)C)c1` | -60.03% | 17.1% |
| `Cc1cn2c(n1)CCC(NC(=O)c1cnc(C)nc1C(C)C)C2` (stereo unspecified) | -14.32% | 2.658% |
| `COCCN1CCC(C(=O)N(C)Cc2cccc(Cl)c2)C1` (stereo unspecified) | -47.25% | -1.824% |
| `Cc1cc(F)ccc1N1CCCC(Nc2nccn3cnnc23)C1=O` (stereo unspecified) | -28.87% | -9.59% |
| `O=C(NCc1ccc(CO)cc1)C1CCOc2ccccc2C1` (stereo unspecified) | 4.839% | 9.901% |
| `CC(=O)N1CCC(c2nnc3ccc(C(=O)NCC(C)C)cn23)C1` (stereo unspecified) | -57.08% | 1.413% |
| `CCOCc1cnc2n1CCN(Cc1scnc1C)C2C.O=C(O)C(F)(F)F` (stereo unspecified) | -10.19% | -0.6439% |
| `O=C(NCc1nn(-c2ccccc2)c2c1CCC2)C1CC1` | - | -2.482% |
| `Cn1cccc1C(=O)N1CCC2(CC1)CN(S(C)(=O)=O)c1ccccc12` | -21.8% | -20.38% |
| `CC(C)c1nc(CN2CCCN(Cc3nccn3C)CC2)no1` | -10.79% | 0.03595% |
| `COCCN(C)C(=O)c1nc2c(s1)CCCN2c1ncccn1` | -140.4% | 1.465% |
| `COc1ccc(C2=CCN(C(=O)CN(C)Cc3ccco3)CC2)cc1` | - | 2.764% |
| `[H][C@@]12CS(=O)(=O)C[C@]1([H])N(Cc1nccn1C)CCN2Cc1ccc(C)o1` | 6.397% | -12.89% |
| `O=C(O)C(F)(F)F.[H][C@@]12CCN(CCc3ccccc3)C[C@@]1([H])O[C@@H](C(=O)NCCOC)C2` | -18.06% | -3.491% |
| `Cc1nnc(CSc2ccccn2)o1` | -55.92% | -6.44% |
| `NCC(c1ccccc1)N1CCc2sccc2C1` (stereo unspecified) | 35.83% | -0.2514% |
| `Cc1cncc(NCc2ccccc2N2CCOCC2)c1` | -24.93% | -66.39% |
| `Cc1ncc(CN(C)C(=O)Nc2cccc(N3CCNC3=O)c2)s1` | -49.43% | -1.115% |
| `CCCc1nnc(N(C)CC2CCN(CC(C)C)C2)o1` (stereo unspecified) | 5.742% | 15.33% |
| `NC(=O)c1cnn2c1NCC(CNCC1(c3ccccc3)CCC1)C2` (stereo unspecified) | -2.988% | -2.195% |
| `[H][C@@]12CS(=O)(=O)C[C@]1([H])N(S(=O)(=O)c1cccc(OC)c1)CCN2C` | -50.39% | -28.11% |
| `Cc1c[nH]nc1C1CCN(C(=O)CC2CCCC2)C1` (stereo unspecified) | - | 3.682% |
| `[H][C@@]12CCN(S(=O)(=O)c3ccccc3)[C@]1([H])CC[C@@H](c1nc(C)no1)O2` | -10.12% | -9.012% |
| `CN(C)CCNC(=O)c1nc2c(o1)CN(c1ncccn1)C2` | -50.08% | 2.104% |
| `CC(C)c1nc(C(=O)N2CCCC(n3cncn3)C2)c[nH]1` (stereo unspecified) | 5.271% | 1.519% |
| `Cc1cccc2cc(C(=O)N3CCSCC3)n(C)c12` | 13.4% | 3.406% |
| `O=C1COc2cc(C(=O)N3CCCC(n4cccn4)C3)ccc2N1` (stereo unspecified) | -20.39% | 10.22% |
| `CCOCc1cccc(NC(=O)C2COCCO2)c1` (stereo unspecified) | 3.202% | -13.53% |
| `COCCN(CC(N)=O)CC1CCCN(C2Cc3ccccc3C2)C1` (stereo unspecified) | -48.62% | -31.32% |
| `Clc1snnc1CN1CCN(c2nccs2)CC1` | -26.9% | -21.13% |
| `Cc1cccc2nc(CN3CCC(N4CCN(C)C4=O)CC3)cn12` | -33.47% | -1.908% |
| `Cn1ccnc(Sc2ccc(O)cc2)c1=O` | 8.373% | 3.636% |
| `CC1CN(C(=O)NCCCn2cncn2)CCO1` (stereo unspecified) | -30.46% | -16.23% |
| `O=C(NCCC1CN(Cc2cccnc2)CCO1)c1ccsc1` (stereo unspecified) | -19.27% | 9.92% |

The first 5 entries again:

structure	A	B
Cc1cccc(C)c1OC1CN(C(=O)C2CCN(C(=O)N(C)C)CC2)C1	-68.14%	4.867%
O=C(O)C(F)(F)F.[H][C@]12CC[C@@]3(N=C(C)N(CCOC)C3=O)[C@@]1([H])CN(Cc1ccccc1F)C2	-70.3%	-22.38%
CS(=O)(=O)N1CCC(n2nnn(-c3ccccc3)c2=O)CC1	-1.313%	9.008%
CCN(C(=O)CNC1CCc2ncnn2C1)C1=CCCCC1 (stereo unspecified)	-39.33%	-1.469%
CCCc1nnc(SCc2cc(=O)n3c4c(sc3n2)CCCC4)[nH]1	5.035%	8.625%